About 4,000 (1%) of roughly 390,000 compounds were called active. The shares of active, inactive and inconclusive entries below differ from those in the screen. Calls come from the whole dose curve; as a rule, active = well fitted inhibition curve with a large enough effect; inconclusive = small, poorly fitted or top-dose-only effect, or another doubt; inactive = no such curve, though single readings can be large or run the other way. Where the call is inconclusive, the potency comes from a doubtful curve fit.
The compounds below were run against DNA polymerase iota (Homo sapiens) (UniProt Q9UNA4) (assay: qHTS for Inhibitors of Polymerase Iota). Details: Pol iota fluorescent replication assay, 10 min; series mostly up to 115 µM.
How it was run: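 Fluorescent replication assay read twice, at 0 min and 10 min after adding 50 nM (final) substrate. Enzyme (10 nM) and compounds were first incubated 15 min at room temperature; enzyme-free buffer wells were negative controls.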
Potency is the fitted concentration of half-maximal effect.

Chains of the proteins cited; added tags and fusions are not shown. Lines headed by an entry give the natural chain unless they say otherwise; changes in a name come on top.
UniProt Q9UNA4: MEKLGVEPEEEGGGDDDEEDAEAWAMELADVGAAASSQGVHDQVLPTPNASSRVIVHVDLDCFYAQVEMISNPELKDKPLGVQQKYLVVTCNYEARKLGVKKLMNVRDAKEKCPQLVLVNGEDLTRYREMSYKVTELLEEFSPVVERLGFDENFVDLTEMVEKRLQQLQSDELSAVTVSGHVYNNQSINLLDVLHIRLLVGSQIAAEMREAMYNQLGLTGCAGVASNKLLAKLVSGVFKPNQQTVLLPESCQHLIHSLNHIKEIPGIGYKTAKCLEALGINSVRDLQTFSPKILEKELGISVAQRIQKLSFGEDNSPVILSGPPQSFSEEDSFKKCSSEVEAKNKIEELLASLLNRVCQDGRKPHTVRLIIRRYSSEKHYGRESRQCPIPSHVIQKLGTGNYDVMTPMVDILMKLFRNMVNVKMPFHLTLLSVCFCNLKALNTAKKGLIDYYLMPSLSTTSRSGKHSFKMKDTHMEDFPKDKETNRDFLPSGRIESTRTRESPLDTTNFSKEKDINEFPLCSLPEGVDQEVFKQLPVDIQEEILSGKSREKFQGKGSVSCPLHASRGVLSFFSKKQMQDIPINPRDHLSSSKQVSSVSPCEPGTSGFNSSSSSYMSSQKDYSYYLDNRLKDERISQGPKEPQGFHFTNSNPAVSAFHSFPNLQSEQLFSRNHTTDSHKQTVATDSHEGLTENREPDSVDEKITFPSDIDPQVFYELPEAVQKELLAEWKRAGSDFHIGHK

Compound	Potency
c1ccc(C2[C@H]3CN(Cc4cccnc4)[C@H](c4ccccc4)C34CC2(c2cccnc2)C4)cc1 (stereo partly specified)	inconclusive: 39.8 µM [inhibitor, single point]
CCCCC(CCCC)c1ccc(C=Nc2ccc(/C=C/c3ccnc4ccccc34)cc2)cc1	inactive
NNc1nc2c(Cl)c(Cl)ccc2s1	active: 14.1 µM
O=C(O)/C=C\C(=O)Nc1ccccc1C#Cc1ccc(Br)cc1	inconclusive: 17.8 µM [inhibitor, full curve, poor fit]
CSC1=C(C#N)C(CC(C)C)C2=C(CCCC2=O)N1 (stereo unspecified)	inconclusive: 28.2 µM [inhibitor, single point]
Cc1ccc(Cn2cccc(NC(=O)NCc3ccccc3)c2=O)cc1	inconclusive: 89.1 µM [inhibitor, single point]
O=C1CC(N2CCN(c3ncccn3)CC2)C(=O)N1CCc1ccccc1 (stereo unspecified)	inconclusive: 28.2 µM [inhibitor, partial curve, poor fit]
CCCn1c(=O)[nH]c(=O)c2c1nc(-c1ccc3c(c1)OCCO3)n2CCN1CCOCC1	inconclusive: 20 µM [inhibitor, single point]
O=C(c1cc(-c2ccco2)nn1-c1cccc(Cl)c1)N1CCCCC1	inconclusive: 31.6 µM [inhibitor, partial curve]
CCCNC(=O)CCC(=O)N1Cc2cccc(OC)c2Oc2ncccc21	inactive
C=CCN(CC=C)C(=O)c1cc2ccccc2c(=O)o1	inconclusive: 89.1 µM [inhibitor, partial curve]
Cc1ccccc1C(=O)NNC(=O)c1ccc2nc[nH]c2c1	inconclusive: 28.2 µM [inhibitor, partial curve, poor fit]
COC(=O)Nc1sc2c(c1C(=O)NCc1ccco1)CCCC2	inconclusive: 50.1 µM [inhibitor, partial curve]
COc1ccccc1N1CCN(C(=O)c2cc(-c3ccc(C)c(F)c3)on2)CC1	inconclusive: 89.1 µM [inhibitor, single point]
CNC(=O)c1ccsc1NC(=O)c1ccc(S(=O)(=O)N2CCCc3ccccc32)cc1	inconclusive: 39.8 µM [inhibitor, single point]
COCCCNC(=O)CN1C(=O)c2cccnc2Sc2ccccc21	inactive
O=C(Nc1ccc(S(=O)(=O)Nc2ncccn2)cc1)c1ccc(N2CCCC2=O)cc1	inconclusive: 35.5 µM [inhibitor, full curve]
COc1cc2sc3ccc(C#Cc4ccc(N)cc4)cc3c(=O)c2cc1OC	inactive
CCCCN1CC(c2nc3ccccc3n2CCCCOc2cc(C)cc(C)c2)CC1=O (stereo unspecified)	inconclusive: 100 µM [inhibitor, single point]
COc1ccc(C(=O)COC(=O)CN2C(=O)c3ccccc3C2=O)c(OC)c1	inactive
O=C(CSc1nnc(-c2cccs2)n1Cc1ccco1)c1ccc2c(c1)OCO2	inconclusive: 6.31 µM [inhibitor, partial curve, poor fit]
CC/C(C)=N/Nc1cccc([N+](=O)[O-])c1	inconclusive: 39.8 µM [inhibitor, single point]

Compound	Potency
O=S(=O)(Nc1nc(-c2ccccc2)cs1)c1cc(Cl)ccc1Cl	inconclusive: 17.8 µM [inhibitor, partial curve, poor fit]
O=C1CC(c2ccccc2)Oc2cc(O)cc(O)c21 (stereo unspecified)	inactive
Cc1ccc(NC(=O)CN(C)S(=O)(=O)c2ccc(Cl)s2)c(O)c1	inconclusive: 7.08 µM [inhibitor, single point]
c1coc(-c2nc(-c3ccco3)c(-c3ccco3)nc2-c2ccco2)c1	inconclusive: 2.51 µM [inhibitor, full curve, poor fit]
COc1ccc(NC(=O)c2c(NC(=O)C(F)(F)F)sc3c2CCCCC3)cc1	inconclusive: 63.1 µM [inhibitor, partial curve, poor fit]
CCCCC1CCC(C(=O)N2CC(=O)Nc3ccc(C)cc3C2c2ccc(F)cc2)CC1 (stereo unspecified)	inactive
CCOC(=O)C1C(=O)C=C(c2ccccc2)CC1c1ccccc1 (stereo unspecified)	inactive
COc1ccc2c(CC(=O)OCC(=O)Nc3ccc(C)cc3)coc2c1	inconclusive: 44.7 µM [inhibitor, partial curve, poor fit]
Cc1cccc(Cc2cnc(NC(=O)C3Cc4ccc(C)cc4C(=O)O3)s2)c1 (stereo unspecified)	inconclusive: 79.4 µM [inhibitor, single point]
Nc1nnnn1/N=C/c1cc(Cl)cc(Cl)c1O	inconclusive: 35.5 µM [inhibitor, partial curve, poor fit]
COc1cccc(Cn2c(=O)n(CC3CCC(C(=O)N4CCCCC4)CC3)c(=O)c3sccc32)c1 (stereo unspecified)	inconclusive: 50.1 µM [inhibitor, partial curve]
O=c1onc(-c2cccs2)n1Cc1ccccc1	inconclusive: 39.8 µM [inhibitor, single point]
Cc1nc2ccc(C(=O)N/N=C/c3ccccc3O)cc2[nH]1	inconclusive: 14.1 µM [inhibitor, full curve]
O=C(COC(=O)c1ccccn1)NCc1cccs1	inactive
CCN(Cc1ccccc1)C(=O)CSc1ccccc1C(=O)O	inconclusive: 70.8 µM [inhibitor, partial curve, poor fit]
Cc1ccc(C)c(OCCCN2CCCC2)c1	inconclusive: 25.1 µM [inhibitor, partial curve, poor fit]
CC(=O)Cn1nnc2sc3c(c2c1=O)CCC(C(C)(C)C)C3 (stereo unspecified)	inactive
COc1ccc(C(=O)NNC(=O)c2ccncc2)cc1	inconclusive: 100 µM [inhibitor, single point]
Cc1cc(C)cc(N2CC(O)=C(c3nc4ccccc4c(=O)[nH]3)C2=N)c1	inconclusive: 35.5 µM [inhibitor, single point]
Fc1ccc(-[n+]2nc(Nc3ccccc3)sc2-c2c(Cl)cccc2Cl)cc1	inconclusive: 28.2 µM [inhibitor, single point]
O=C(c1ccc2c(c1)N(Cc1ccccc1)C(=O)c1ccccc1S2(=O)=O)N1CCCC1	inactive
CCc1nnc(NC(=O)c2ccc(S(=O)(=O)N(CC)Cc3ccccc3)cc2)o1	inconclusive: 35.5 µM [inhibitor, single point]

Of the compounds above, these contain a furan ring, fused or not:
Compound	Potency
O=C(c1cc(-c2ccco2)nn1-c1cccc(Cl)c1)N1CCCCC1	inconclusive: 31.6 µM [inhibitor, partial curve]
COC(=O)Nc1sc2c(c1C(=O)NCc1ccco1)CCCC2	inconclusive: 50.1 µM [inhibitor, partial curve]
O=C(CSc1nnc(-c2cccs2)n1Cc1ccco1)c1ccc2c(c1)OCO2	inconclusive: 6.31 µM [inhibitor, partial curve, poor fit]
c1coc(-c2nc(-c3ccco3)c(-c3ccco3)nc2-c2ccco2)c1	inconclusive: 2.51 µM [inhibitor, full curve, poor fit]
COc1ccc2c(CC(=O)OCC(=O)Nc3ccc(C)cc3)coc2c1	inconclusive: 44.7 µM [inhibitor, partial curve, poor fit]

Remaining list, next part:

Compound	Potency
Cn1nccc1C(=O)Nc1ccc(OC(=O)c2ccnn2C)cc1	inconclusive: 89.1 µM [inhibitor, partial curve]
COc1ccc(C(=O)NCc2nnc(SCC(=O)Nc3cc(Cl)ccc3OC)o2)cc1	inconclusive: 70.8 µM [inhibitor, single point]
Fc1cccc(CCN2CCNC[C@@H]2Cc2ccccc2)c1	inconclusive: 28.2 µM [inhibitor, full curve]
O=c1[nH]c2ccccc2c(O)c1-[n+]1ccccc1	inconclusive: 63.1 µM [inhibitor, partial curve]
COc1cccc(CCNC(=O)Cn2c(-c3cccs3)cc3ccccc32)c1	inconclusive: 89.1 µM [inhibitor, partial curve, poor fit]
CC(=Nc1ccc(C)cc1)c1sc2ccccc2c1O	inconclusive: 22.4 µM [inhibitor, full curve, poor fit]
COC(=O)c1ccc(CNC(=O)C2CCC(=O)N(CCN3CCOCC3)C2)cc1 (stereo unspecified)	inactive
CCC1CCCCN1C(=O)COC(=O)c1cc2ccccc2cc1O (stereo unspecified)	inconclusive: 50.1 µM [inhibitor, partial curve, poor fit]
O=C(CN1CCN(CC(=O)Nc2ccc(OCc3ccccc3)cc2)CC1)Nc1ccc(F)cc1	inconclusive: 20 µM [inhibitor, partial curve, poor fit]
Cc1ccc(NC(=O)CSc2nnc3nc(C)cc(C)n23)cc1	inactive
Cc1csc(SCC(=O)Nc2sc3c(c2C#N)CCC3)n1	inconclusive: 15.8 µM [inhibitor, partial curve, poor fit]
O=C(CNCc1cccnc1)Nc1cc(C(F)(F)F)ccc1N1CCOCC1	inconclusive: 3.16 µM [inhibitor, partial curve, poor fit]
COCCN=C1NN=C(c2cc(C)n(CC3CCCO3)c2C)CS1 (stereo unspecified)	inconclusive: 15.8 µM [inhibitor, partial curve]
O=c1cc(CN2CCN(S(=O)(=O)c3cccc(Cl)c3)CC2)c2ccc(O)cc2o1	inconclusive: 17.8 µM [inhibitor, full curve]
CCN(CC)C(=O)c1sc(NC(=O)c2nc3ncccn3n2)c(C(=O)OC)c1C	inactive
CCN1/C(=C/c2cc[n+](C)cc2)C=Cc2cc(C)ccc21	inconclusive: 20 µM [inhibitor, full curve, poor fit]
O=C(CSc1nc(-c2cccc(Cl)c2)nc2cc(=O)[nH]n12)Nc1ccccc1	inconclusive: 35.5 µM [inhibitor, partial curve, poor fit]
Cn1c(COc2ccc(Cl)cc2)nc2ccccc2c1=O	inconclusive: 7.08 µM [inhibitor, full curve, poor fit]
COc1ccc(Br)cc1/C=N/n1nnnc1N	inconclusive: 56.2 µM [inhibitor, partial curve, poor fit]
OCc1ccccc1NC(=S)Nc1cccnc1	inconclusive: 56.2 µM [inhibitor, partial curve, poor fit]
CCOc1ccc(S(=O)(=O)/N=C(\N)c2ccccc2)cc1	inconclusive: 89.1 µM [inhibitor, partial curve, poor fit]
COc1ccc(C(CC(=O)O)NC(=O)c2cc3ccccc3oc2=O)cc1OC (stereo unspecified)	inconclusive: 3.55 µM [inhibitor, partial curve, poor fit]

— PubChem BioAssay AID588590 (National Center for Advancing Translational Sciences (NCATS), 2011)
